SMILES strings stand for the structures. This is one part of the list. Cut-off read from the data, not from the text of the source: active = 150% or more and inactive = the rest. Most values come without repeats; read them as rough.

The assay has as its system Staphylococcus aureus JE2-lux inside RAW 264.7 macrophages. The experiment in a line: intracellular bacterial bioluminescence relative to DMSO vehicle; higher = higher intracellular bacterial metabolic activity. The following applies: 10 µM; treatment time 4 h; gentamicin 50 µg/ml.
For `O=C(Nc1ccc(C(=O)OCc2nc3ccccc3[nH]2)cc1)c1ccc2nccnc2c1`, the intracellular bacterial bioluminescence was inactive: 123%.

As to `Cc1ccc(C2C(C(=O)c3ccco3)=C(O)C(=O)N2CCCN(C)C)cc1` (stereo not given), the intracellular bacterial bioluminescence was inactive: 106%. Turning to `CCn1nc(C)c2[nH]c(=S)n(Cc3cccc(OC)c3)c(=O)c21`, the intracellular bacterial bioluminescence was inactive: 114%. `C/C(=N\Nc1nc2c(c(=O)[nH]c(=O)n2C)n1CC(C)C)c1ccccc1`: the intracellular bacterial bioluminescence is inactive: 95.8%. With `CCOc1ccc(-c2cc3c(N4CCC(C(=O)NCc5cccnc5)CC4)nccn3n2)cc1`, the intracellular bacterial bioluminescence was inactive: 72.9%. Take `CCOC(=O)c1ccccc1NC(=O)CSc1nc2c(-c3ccccc3)csc2c(=O)n1C`: the intracellular bacterial bioluminescence was inactive: 106%. As for `COc1ccccc1-n1c(SCC(=O)Nc2ccccc2F)nc2cccnc21`, the intracellular bacterial bioluminescence is inactive: 83.5%. Under `CC1(C)Cc2c(sc(NC(=O)CN3C(=O)CCC3=O)c2C(N)=O)C(C)(C)N1` stands inactive: 116%. For `O=C(/C=C/c1cccs1)Nc1nc2c(s1)CSc1ccccc1-2`, the intracellular bacterial bioluminescence was inactive: 104%. As for `CC1CN(CC(=O)Nc2ccc3[nH]c(CN4CCCCC4)nc3c2)CC(C)O1` (stereo not given), the intracellular bacterial bioluminescence is inactive: 115%. In the case of `Cc1cccc(CNc2nc(N3CCN(C)CC3)nc3c2cnn3C)c1`, the intracellular bacterial bioluminescence was inactive: 102%. For `CCOc1ccc(C(=O)Nc2cc(=O)n(C)c(=O)n2C)cc1`, the intracellular bacterial bioluminescence is inactive: 98.9%. With `Cc1cc2c(=O)n(CC(=O)Nc3cnn(Cc4ccc(F)cc4)c3)cnc2s1`, the intracellular bacterial bioluminescence is inactive: 0.982%. For `CC(NC(=O)C(C)N1C(=O)NC(C)(C)C1=O)c1ccc2c(c1)CCC2` (stereo not given), the intracellular bacterial bioluminescence was inactive: 94.6%.

On to `O=C1C2C(c3ccc(O)cc3)NN(Cc3ccccc3)C2C(=O)N1C1CCCCC1` (stereo not given), for which the intracellular bacterial bioluminescence is inactive: 101%. With `O=C(Nc1nnc(Cc2cccc(F)c2)s1)c1cc2c([nH]c1=O)CCCCC2` the figure was inactive: 83.3%. Consider `CCN(c1ccccc1)S(=O)(=O)c1ccc(C(=O)Nc2ccc3ncsc3c2)cc1`, for which the intracellular bacterial bioluminescence was inactive: 98.7%. As to `CCOc1cccc2c1OC(c1ccncc1)N1N=C(c3cccc(O)c3)CC21` (stereo not given), the intracellular bacterial bioluminescence is inactive: 75%.

`CSc1ncc(C(=O)Nc2nc(-c3c[nH]c4cc(C)ccc34)cs2)cn1`: the intracellular bacterial bioluminescence was inactive: 135%. Turning to `Cc1nn(-c2ccccc2)c2ncc(C(=O)Nc3ccc4c(c3)OCCO4)c(Cl)c12`, the intracellular bacterial bioluminescence is inactive: 103%. For `N#CC1=C(N)Oc2c(oc(CO)cc2=O)C12C(=O)N(Cc1ccccc1)c1ccccc12` (stereo not given), the intracellular bacterial bioluminescence is inactive: 33.4%. `CCOc1ccc(CN2C(=O)c3ccccc3C2C(=O)NCCCOC(C)C)cc1` (stereo not given): the intracellular bacterial bioluminescence was inactive: 113%.

`CC(=O)Nc1ccc(Nc2ncnc3c2c(C)c(C)n3-c2ccccc2)cc1`: the intracellular bacterial bioluminescence was inactive: 82.3%. With `Cc1ccc(Cl)cc1NS(=O)(=O)c1cc(-c2nc(C)c(C)s2)cs1` the figure was inactive: 31.5%. `Cc1ccc(-c2nnc3ccc(SCC(=O)Nc4cc(C)on4)nn23)cc1`: the intracellular bacterial bioluminescence is inactive: 114%. Regarding `CCn1/c(=N/C(=O)CSCC(=O)Nc2nccs2)sc2ccccc21`, the intracellular bacterial bioluminescence is inactive: 70.8%. For `O=C(CN1C(=O)CC(c2ccco2)Sc2ccccc21)Nc1ccccc1` (stereo not given), the intracellular bacterial bioluminescence is inactive: 81.6%. For the compound `Cc1nonc1NC(=O)CSc1nc2cc3c(cc2cc1C#N)OCCO3`, the intracellular bacterial bioluminescence is inactive: 62.7%. For the compound `CCOC(=O)Nc1ccc2c(c1)C(=O)Nc1cc(C)ccc1O2`, the intracellular bacterial bioluminescence is inactive: 97.8%. With `CCOc1ccc2nc(NC(=O)CN3C(=O)c4ccccc4C3=O)sc2c1`, the intracellular bacterial bioluminescence was inactive: 66.1%. Turning to `CN1CCc2c(sc(NC(=O)c3cc(-c4ccccc4)nc4ccccc34)c2C(N)=O)C1`, the intracellular bacterial bioluminescence was inactive: 60.9%. Consider `CC1CCc2c(sc3ncnc(SCC(=O)Nc4ccc(C(=O)O)cc4)c23)C1` (stereo not given), for which the intracellular bacterial bioluminescence was inactive: 71.9%. In the case of `CCOC(=O)c1ccccc1NC(=O)CSc1nc(=O)[nH]c(C)c1C(=O)OCC`, the intracellular bacterial bioluminescence is inactive: 102%. Turning to `CNC(=S)N(CCc1c(C)[nH]c2ccc(C)cc12)Cc1cccnc1`, the intracellular bacterial bioluminescence is inactive: 78%. With `O=C(CN1CCC2(CC1)NC(=O)N(Cc1ccc(Cl)cc1)C2=O)Nc1cccc(F)c1`, the intracellular bacterial bioluminescence was inactive: 44.9%. As for `Cc1cc(NC(=O)Cn2c(C)cc(C)c(C#N)c2=O)[nH]n1`, the intracellular bacterial bioluminescence is inactive: 116%.

On to `COc1ccc([N+](=O)[O-])cc1NC(=O)c1c[nH]c(=O)n(-c2ccc(OC)c(OC)c2)c1=O`, for which the intracellular bacterial bioluminescence was inactive: 120%. On to `COc1cccc2sc(NC(=O)c3cccc(C(F)(F)F)c3)nc12`, for which the intracellular bacterial bioluminescence was inactive: 111%. `N#Cc1c2c(c(NCCN3CCCCCC3)n3c1nc1ccccc13)CCC2`: the intracellular bacterial bioluminescence is inactive: 127%. Regarding `Cc1ccc2sc(NNC(=O)c3nc4ccccc4s3)nc2c1C`, the intracellular bacterial bioluminescence was inactive: 101%. Turning to `COC(=O)C1Sc2[nH]c(=O)sc2C(c2cccc([N+](=O)[O-])c2)C1C(=O)OC` (stereo not given), the intracellular bacterial bioluminescence was inactive: 97.5%. For the compound `CCOc1ccccc1C1C(C#N)=C(N)Oc2[nH]nc(-c3ccccc3)c21` (stereo not given), the intracellular bacterial bioluminescence was inactive: 80.6%. On to `CN1CCN(Nc2ncnc(N)c2[N+](=O)[O-])CC1`, for which the intracellular bacterial bioluminescence was inactive: 109%. With `COc1ccccc1NC(=O)CN1C(=O)C2(SCC(=O)N2c2cccc(F)c2)c2cc(C)ccc21` (stereo not given) the figure was inactive: 102%; with `COCCNC(=O)CN1CCN(c2ncc(NC(C)=O)cc2C(=O)O)CC1`, inactive: 97%; with `Cn1c(=O)[nH]c(=O)c2c1nc1n2CC(c2ccc(Br)cc2)O1` (stereo not given), inactive: 106%. In the case of `COc1ccc(C(=O)Nc2sc3c(c2C(N)=O)CCCCC3)c(OC)c1`, the intracellular bacterial bioluminescence was inactive: 86.1%. Consider `Cc1ccc(-c2ncc3c(=O)n(CC(=O)Nc4nccs4)c(=O)n(C)c3n2)cc1`, for which the intracellular bacterial bioluminescence is inactive: 114%.

Regarding `Cn1nc(C(C)(C)C)cc1C(=O)N1CCc2c(nc(N3CCOCC3)[nH]c2=O)C1`, the intracellular bacterial bioluminescence is inactive: 106%. With `COc1cccc(-c2ocnc2C(=O)Nc2ccc(CN3CCCCC3)cc2)c1`, the intracellular bacterial bioluminescence was inactive: 24%. Under `O=C(COc1ccc(Cl)cc1)Nc1nc2c(s1)CSc1ccccc1-2` stands inactive: 128%; under `CCc1c(C)nc2ncnn2c1Sc1ccc(NC(=O)C2CC(=O)N(c3ccc(C)cc3)C2)cc1` (stereo not given), inactive: 72.4%; under `O=C(NCc1n[nH]c(=O)c2ccccc12)Nc1c(F)cccc1F`, inactive: 107%.

Consider `COC(=O)c1cccc(-n2nnnc2SCC(=O)Nc2ccc(F)cc2)c1`, for which the intracellular bacterial bioluminescence was inactive: 83.9%. In the case of `Cc1ccc(-c2c(C(F)(F)F)nn3c(NCc4cccnc4)cc(C)nc23)cc1`, the intracellular bacterial bioluminescence was inactive: 81.6%. Under `Cc1ccc(NC(=O)CN(C2=NC3CS(=O)(=O)CC3S2)c2ccc(C(C)C)cc2)cc1` (stereo not given) stands inactive: 85.3%. In the case of `O=C(CC1(O)C(=O)Nc2ccc(Cl)cc21)c1cccs1` (stereo not given), the intracellular bacterial bioluminescence is inactive: 119%. `CC1CCCCN1S(=O)(=O)c1ccc2c(c1)c(=O)n(CC(=O)N1CCCC1)c(=O)n2C` (stereo not given): the intracellular bacterial bioluminescence is inactive: 104%. As for `CC(=O)c1cnc2cc(C(=O)NC(c3ccccc3)c3cccnc3)nn2c1C` (stereo not given), the intracellular bacterial bioluminescence was inactive: 128%. With `O=C(CSc1nnc(-c2ccco2)c(-c2ccco2)n1)c1cccs1` the figure was inactive: 106%. Under `Cc1cc(OC(=O)c2ccc(Br)o2)c([N+](=O)[O-])c(=O)[nH]1` stands inactive: 76%; under `Cc1cc(N2CCOCC2)nc(SCC(=O)Nc2ccc(Cl)cc2Cl)n1`, inactive: 100%; under `Cc1ccc(-c2nsc(NC(=O)c3oc4cc(Br)ccc4c3C)n2)s1`, inactive: 105%. For the compound `O=C(COc1coc(CN2CCN(c3ccccc3F)CC2)cc1=O)Nc1cccc([N+](=O)[O-])c1`, the intracellular bacterial bioluminescence was inactive: 109%. Take `Nc1ncnc(Nc2cc(C(F)(F)F)ccc2Cl)c1[N+](=O)[O-]`: the intracellular bacterial bioluminescence was inactive: 101%. With `COC(=O)c1ccc(C(=O)Nc2nc3c(cc4c5c(cccc53)CC4)s2)cc1` the figure was inactive: 104%; with `CN1C(=O)c2cccc(NC(=O)c3cc4c(ccc5ccccc54)oc3=O)c2C1=O`, inactive: 117%. As to `CC(NC(=O)CC1CCN(C(=O)c2cc3cc(Cl)ccc3[nH]2)CC1)c1ccccc1` (stereo not given), the intracellular bacterial bioluminescence is inactive: 87.3%. As to `CCn1nc(C)c2ccnc(N3CCC(C(=O)Nc4cc(Cl)c(OC)cc4OC)CC3)c21`, the intracellular bacterial bioluminescence is inactive: 56.8%. As for `Cc1noc(C)c1CCC(=O)N1CCC[C@@H](CNC(=O)c2ccco2)C1`, the intracellular bacterial bioluminescence is inactive: 110%. Consider `Cc1ccc(COc2cccc3c2CCNC3=O)cc1`, for which the intracellular bacterial bioluminescence is inactive: 66.8%. Consider `CC1(C)CC(=O)C2=C(C1)Nc1ccccc1N(CC(=O)NCc1ccncc1)C2c1ccco1` (stereo not given), for which the intracellular bacterial bioluminescence was inactive: 103%. With `CCOc1ccc(NC(=S)NNc2nc(N3CCCC3)nc(N3CCCC3)n2)cc1`, the intracellular bacterial bioluminescence was inactive: 71.5%. On to `O=C(NCc1nnnn1-c1ccccc1)c1cc(=O)c2ccccc2o1`, for which the intracellular bacterial bioluminescence was inactive: 91.6%. With `Cn1c(=O)c2nc(SCC(=O)c3ccc(Cl)c(Cl)c3)[nH]c2n(C)c1=O` the figure was inactive: 96.6%; with `Cc1oc2ncnc(OCC(=O)Nc3cccc(Cl)c3C)c2c1C`, inactive: 95.9%; with `CCCCOc1ccc(NCc2cc3c(C)nn(-c4ccccc4)c3[nH]c2=O)cc1`, inactive: 65.5%. Regarding `CCCC(=O)Nc1sc(Nc2ccc(C)cc2)nc1C(N)=O`, the intracellular bacterial bioluminescence was inactive: 41.8%. On to `CCOc1cccc2sc(Nc3nc4ccc(NC(C)=O)cc4s3)nc12`, for which the intracellular bacterial bioluminescence is inactive: 116%.

As to `COc1ccc(C(CNc2nn3cnnc3c3ccccc23)N2CCOCC2)cc1` (stereo not given), the intracellular bacterial bioluminescence was inactive: 118%.

Regarding `O=C(Cc1cc(=O)[nH]c(=O)[nH]1)NCCN1CCOCC1`, the intracellular bacterial bioluminescence was inactive: 90.6%. With `COCCCNC(=O)NC(c1ccccc1)c1nnc(-c2ccc(Cl)cc2)o1` (stereo not given), the intracellular bacterial bioluminescence is inactive: 89%. Regarding `O=C(O)C(Sc1nncc(-c2ccccc2)n1)c1ccccc1` (stereo not given), the intracellular bacterial bioluminescence is inactive: 95.2%. With `Cc1cc(C)c2nc(NC(=O)Nc3cccc(Cl)c3)sc2c1`, the intracellular bacterial bioluminescence is inactive: 102%.

`COc1cc(NC(=O)Cn2ncn3nc4c(c3c2=O)CCCC4)cc(OC)c1`: the intracellular bacterial bioluminescence is inactive: 15.4%. Under `O=C(Nc1ccc(OC(F)(F)F)cc1)c1ccc2nc[nH]c2c1` stands inactive: 104%. For the compound `COc1ccc(-c2cc(C3CC3)nc3sc(C(N)=O)c(N)c23)cc1`, the intracellular bacterial bioluminescence was inactive: 82.4%. Under `Cc1sc(NC(=O)c2cc3cc([N+](=O)[O-])ccc3s2)c(C#N)c1C` stands inactive: 109%; under `O=C(Nc1ccc2[nH]cnc2c1)c1ccc2nccnc2c1`, inactive: 97%. For `O=C1c2ccccc2-c2c(Nc3ccccc3)c(=O)[nH]c3cccc1c23`, the intracellular bacterial bioluminescence is inactive: 74.8%.

Values taken from the supplement of paper PMC12578635.
